{
  "sequences": {"note": "Protein sequences, listed by entry. Tags and fused reporters are not part of them. Lines headed by an entry give the natural chain unless they say otherwise; changes in a name come on top.", "UniProt P33033": "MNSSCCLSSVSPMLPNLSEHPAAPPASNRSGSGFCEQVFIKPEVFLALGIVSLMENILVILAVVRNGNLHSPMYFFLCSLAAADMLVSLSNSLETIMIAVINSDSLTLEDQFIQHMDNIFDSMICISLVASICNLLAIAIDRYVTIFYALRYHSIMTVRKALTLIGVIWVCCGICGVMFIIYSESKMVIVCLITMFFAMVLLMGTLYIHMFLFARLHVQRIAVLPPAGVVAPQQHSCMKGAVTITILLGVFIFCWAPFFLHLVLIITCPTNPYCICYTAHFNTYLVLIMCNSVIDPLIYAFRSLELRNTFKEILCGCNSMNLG"},
  "source": "patent US7582610B2",
  "about": "“Melanocortin receptor templates, peptides and use thereof” (priority 2003, dated 2009)",
  "molecular_target": "mMC3R (Mus musculus, UniProt P33033)",
  "experiment": "Functional bioassay, CRE/β-galactosidase reporter in HEK-293 cells stably expressing mMC3R",
  "details": "Schild analysis against the agonist MTII; ± SEM",
  "note": "For at least one compound, name, drawing or mass did not settle the structure. Where a SMILES comes first, the peptide text is derived from it. Bridges are numbered along the chain shown (N, C = ends). [ ]: non-standard residue; d: D form. ξ: configuration not given here. ξAtc = NC1(C(=O)O)CCc2ccccc2C1; Dap = NC[C@H](N)C(=O)O",
  "data": [
    {"smiles": "C[C@@H]1NC(=O)[C@H](CC(N)=O)NC(=O)[C@H](Cc2c[nH]c3ccccc23)NC(=O)[C@H](CCCNC(=N)N)NC(=O)[C@@H](Cc2ccccc2)NC(=O)C2(CCc3ccccc3C2)NC(=O)[C@@H](NC(=O)[C@@H](N)Cc2ccc(O)cc2)CC(=O)NC[C@@H](C(=O)N[C@@H](Cc2ccc(O)cc2)C(N)=O)NC(=O)[C@H](Cc2ccccc2)NC1=O", "note": "(mixture of isomers) [SEQ ID NO: 30, Tyr-c[Asp-(rac)Atc-DPhe-Arg-Trp-Asn-Ala-Phe-Dpr]-Tyr] (H-YD[ξAtc][dF]RWNAF[Dap]Y-NH2; lactam 2-10; N-terminus assumed)", "values": [
      {"measurement": "antagonist pA2 mMC3R", "value": "pA2 = 6.4 ± 0.2"}
    ]}
  ]
}
